Assay results as given in PubChem BioAssay AID493014 (National Center for Advancing Translational Sciences (NCATS), 2011).
This is one part of the list. Shown are side measurements of this screen, not its main read-out; they come without a call. Most of these compounds were active or inconclusive in the main read-out, so they are no random draw. The note in brackets gives the kind of curve behind each potency; many fits are weak.

Test: qHTS Assay to Find Inhibitors of Chronic Active B-Cell Receptor Signaling
Conditions: ABC-DLBCL IkBa-CBG/CBR reporter, luminescence ratio (green luciferase fused to IkBa over red control in TMD8 lymphoma cells), 4 h
Outline: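 Concentration-response series (up to 46 uM) were applied to TMD8 dual-reporter cells for 4 h at 37C with doxycycline. Green/red ratio, after filter-overlap correction, defined %Activity; red signal alone was normalised to basal cells and zero luminescence.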

[1] = measured here: CBR red luminescence, cell number
[2] = measured here: IkBa-CBG green luminescence

With `Cc1ccccc1-n1c(SCC(=O)Nc2ccccc2Cl)nc2n[nH]c(C)c2c1=N` the AC50 [1] was 11.2 µM [rising, partial curve, poor fit].

With `CCN(C(=O)c1ccc2c(SCC(=O)O)c3c(nc2c1)CCC3)c1cc(Cl)ccc1OC` the AC50 [1] was 3.55 µM [falling, partial curve, poor fit].

In the case of `CCn1c(C)csc1=NC(=O)c1ccccc1O`, the AC50 [1] is reported as 1.16 µM [rising, partial curve, poor fit].

With `CN1CCN(C(=O)CN(CCc2ccccc2)S(C)(=O)=O)CC1` the AC50 [1] was 32.6 µM [rising, single point].

For `O=C(CCCCCNC(=S)Nc1ccccc1)C[N+](=O)[O-]`, the AC50 [1] was 12.6 µM [falling, partial curve].

For `COc1ccc2c(c1)OC1(C)CC2C(C(=O)c2ccccc2OC)C(=O)N1` (centres undefined), the AC50 [1] was 23.1 µM [rising, single point].

With `O=C(NCCCN1CCCC1=O)c1cn(-c2ccccc2)nc1-c1ccccc1` the AC50 [1] was 7.08 µM [rising, partial curve, poor fit].

In the case of `CCc1ccc(-c2cc(C)no2)cc1S(=O)(=O)NCCCN1CCN(c2ccccc2)CC1`, the AC50 [1] is reported as 15.8 µM [falling, partial curve, poor fit].

For `Cc1noc(C)c1S(=O)(=O)N1CCC(C(=O)N2CCC(N3CCCCC3)CC2)CC1`, the AC50 [1] was 5.62 µM [rising, single point].

For `COC(=O)c1ccc(Nc2ncnc3c2cnn3C)cc1`, the AC50 [1] was 1.26 µM [rising, full curve, poor fit].

For `Cc1cc2nc(SCC(=O)N(C)C)c3c(c2cc1C)CCCC3`, the AC50 [1] was 35.5 µM [falling, single point] and the AC50 [2] was 12.6 µM [rising, partial curve, poor fit].

For `COc1ccc(C(=O)N/N=C(\C)CC(=O)Nc2ccc3c(c2)OCO3)cc1`, the AC50 [1] was 35.5 µM [falling, single point].

In the case of `CCN(CCNC(=O)C1=C(C)C(=O)OC12CCC(C)CC2)c1ccccc1` (centres undefined), the AC50 [1] is reported as 35.5 µM [rising, single point].

In the case of `Cc1cc(=O)oc2cc(NC(=O)CCOc3ccccc3)ccc12`, the AC50 [1] is reported as 14.1 µM [rising, partial curve].

In the case of `Cc1nnc(SCC(=O)n2c3c(c4ccccc42)CCCC3)s1`, the AC50 [1] is reported as 3.16 µM [falling, partial curve, poor fit].

In the case of `N=c1n(CCCOc2ccc(Br)cc2)c2ccccc2n1CC(N)=O`, the AC50 [1] is reported as 10 µM [falling, partial curve, poor fit].

For `Cc1ccc2c(COC(=O)CNC(=O)c3ccco3)cc(=O)oc2c1C`, the AC50 [1] was 23.1 µM [rising, partial curve, poor fit].

With `Cc1ccc(S(=O)(=O)NCCC(=O)OCC(=O)Nc2cccc(S(=O)(=O)NC3=NCCCCC3)c2)cc1` the AC50 [1] was 0.1 µM [rising, full curve, poor fit].

With `COc1ccc(COc2ccsc2C(=O)Nc2ccc(Cl)c(Cl)c2)cc1` the AC50 [1] was 5.62 µM [rising, partial curve, poor fit].

For `Cc1ccnc(SCCn2c(N3CCCCC3)nc3c2c(=O)n(C)c(=O)n3C)n1`, the AC50 [1] was 0.447 µM [rising, full curve, poor fit].

With `Cc1noc(C)c1-c1ccc2ncnc(NCC3CCCCN3C)c2c1` (centres undefined) the AC50 [1] was 5.8 µM [rising, partial curve, poor fit].

For `O/N=C(\c1ccc(Cl)cc1Cl)c1ncc(C(F)(F)F)cc1Cl`, the AC50 [1] was 0.092 µM [rising, full curve].

For `COc1cccc(-c2nc3ccccc3s2)c1`, the AC50 [1] was 3.66 µM [rising, full curve, poor fit].

With `Cc1nc(-c2ccccc2)sc1C1(C)CC(c2c(Cl)cccc2Cl)=NO1` (centres undefined) the AC50 [1] was 2 µM [rising, partial curve].

In the case of `CC(C)(C)c1ccc(OCCOc2ccc(C(C)(C)C)cc2NC=O)c(NC=O)c1`, the AC50 [1] is reported as 22.4 µM [falling, partial curve, poor fit].

With `COc1ccc(N=C2S/C(=C\c3ccc(Cl)c([N+](=O)[O-])c3)C(=O)N2CCN(C)C)cc1` the AC50 [1] was 8.91 µM [falling, partial curve, poor fit].

In the case of `CC(=O)Nc1ccc(SCC(=O)OCC(=O)NC(=O)NCc2ccco2)cc1`, the AC50 [1] is reported as 17.8 µM [rising, single point].

With `Cc1ccc(C(=O)O/N=C(\N)c2ccccn2)cc1` the AC50 [1] was 1.26 µM [falling, full curve].

With `COc1ccc(C(=O)Nn2c(SCC(=O)N3CCC(C)CC3)nc3ccccc3c2=O)cc1` the AC50 [1] was 3.16 µM [falling, full curve, poor fit].

With `CCn1c(COc2ccc3c(c2)OCO3)nnc1SCC(=O)c1ccc(Cl)cc1` the AC50 [1] was 2.91 µM [rising, single point].

For `CCCN(CC(=O)Nc1ccccc1C)CC(=O)Nc1ccc(Br)cc1F`, the AC50 [1] was 12.6 µM [falling, single point].

With `OC(CNc1nc(C(F)(F)F)nc2ccccc12)c1ccccc1` (centres undefined) the AC50 [1] was 14.1 µM [falling, single point].

With `CC(C)c1ccc(S(=O)(=O)/N=C2\C=C(NS(=O)(=O)c3ccccc3)C(=O)c3ccccc32)cc1` the AC50 [1] was 25.1 µM [falling, single point].

With `CCCCc1cc(=O)oc2cc(C)cc(O)c12` the AC50 [1] was 3.16 µM [rising, partial curve, poor fit].

With `Cn1c(=O)c(C(=O)Nc2cnccn2)c(O)c2ccccc21` the AC50 [1] was 11.2 µM [falling, partial curve].

In the case of `COc1cccc(Nc2nc3ccccc3n3nnnc23)c1`, the AC50 [1] is reported as 4.11 µM [rising, partial curve, poor fit].

In the case of `CCCN(CC(=O)Nc1ccccc1OC)C(=O)c1ccc(=O)[nH]c1`, the AC50 [1] is reported as 6.31 µM [falling, single point].

For `S=C(NCCN1CCOCC1)NC1CCCCC1`, the AC50 [1] was 0.398 µM [rising, full curve, poor fit].

For `CN1CCN(CCC=C2c3ccccc3Sc3ccc(S(=O)(=O)N(C)C)cc32)CC1`, the AC50 [1] was 29.1 µM [falling, single point].

With `Cc1cc(-c2nnc(-c3cccc(C(F)(F)F)c3)o2)no1` the AC50 [1] was 0.562 µM [rising, full curve, poor fit].

With `CCCNC(=O)Nc1cc(OC)c(OC)cc1Cc1nccc2cc(OC)c(OC)cc12` the AC50 [2] was 17.8 µM [falling, partial curve, poor fit].

With `CCn1ncc(Br)c1C(=O)Nc1ccn(C23CC4CC(CC(C4)C2)C3)n1` the AC50 [1] was 8.2 µM [rising, partial curve, poor fit].

With `COCCn1c(-c2ccc(SC)cc2)nc2c1c(=O)[nH]c(=O)n2CC(C)C` the AC50 [1] was 0.224 µM [rising, full curve, poor fit].

For `O=C(O)c1c(-n2cccc2)sc2c1CCCC2`, the AC50 [1] was 5.62 µM [rising, single point].

In the case of `CC12CCC(=O)N1C(C(=O)Nc1nc(-c3ccccc3)cs1)CS2` (centres undefined), the AC50 [1] is reported as 0.0731 µM [falling, full curve, poor fit].

For `CCOc1ccc(NC(=O)c2ccc(NS(=O)(=O)c3cccs3)cc2)cc1`, the AC50 [1] was 11.2 µM [falling, partial curve].

For `Cn1ncc(C(=O)Nc2ccc(OC(F)(F)F)cc2)c1-n1cccc1`, the AC50 [1] was 12.6 µM [rising, partial curve, poor fit].

In the case of `COc1cccc(NC(=S)/C(=C(\[O-])c2ccc(OC(F)F)cc2)[n+]2ccccc2)c1`, the AC50 [1] is reported as 35.5 µM [falling, single point].

For `COCCn1c(N)c(C#N)c2nc3ccccc3nc21`, the AC50 [1] was 6.51 µM [falling, single point].

With `CCCCN1C(=O)c2ccc(C(=O)NCc3ccco3)cc2C1=O` the AC50 [1] was 0.708 µM [falling, partial curve, poor fit].

In the case of `COc1ccc(NC(=O)COC(=O)CC2CCCCC2)cc1`, the AC50 [1] is reported as 13 µM [rising, partial curve, poor fit].

For `Cc1cc(C(=O)CCC(=O)Nc2ccc(S(N)(=O)=O)cc2)c(C)s1`, the AC50 [1] was 29.1 µM [falling, partial curve, poor fit].

For `CCON1C(=O)C(C)(C)N(OCC)C(=O)C1(C)C`, the AC50 [1] was 20 µM [rising, partial curve, poor fit].

For `CC(C)(C)SCCSC1=CC(=O)CC(c2ccccc2)C1` (centres undefined), the AC50 [1] was 15.8 µM [rising, single point].

With `COc1cc(C2CC(c3ccccc3)=NN2c2ccccc2)ccc1OCC(=O)O` (centres undefined) the AC50 [1] was 1.26 µM [falling, full curve].

For `CCCC(=O)Nc1ccc2nn(-c3ccc(OC)cc3)nc2c1`, the AC50 [1] was 11.2 µM [rising, partial curve, poor fit].

For `CCOC(=O)C1CCCN(Cc2cccs2)C1` (centres undefined), the AC50 [1] was 29.1 µM [rising, single point].

In the case of `COc1ccc(NC(=O)/C=C\C(=O)N(c2ccc(C(C)C)cc2)C(C(=O)NCc2ccco2)c2ccc(C)cc2)cc1` (centres undefined), the AC50 [1] is reported as 10 µM [falling, partial curve, poor fit].

For `Cn1c2ccccc2n2c(=O)cc(-c3ccccc3)c(C#N)c12`, the AC50 [1] was 0.398 µM [falling, full curve].

In the case of `C/C(=N/NC(=O)c1ccc(C)s1)c1cccc(NC(=O)c2ccoc2C)c1`, the AC50 [1] is reported as 35.5 µM [falling, partial curve, poor fit].

With `O=C(Nc1ccc(Cl)cn1)c1ccccc1[N+](=O)[O-]` the AC50 [1] was 10 µM [falling, partial curve, poor fit].

For `Cn1c(C(=O)NCCN2CCCCCC2)cc2c(=O)n(C)c3ccccc3c21`, the AC50 [1] was 5.17 µM [rising, single point].

For `O=C(Nc1c(F)cc(F)cc1Br)c1cc(-c2ccccc2)on1`, the AC50 [1] was 3.98 µM [falling, full curve, poor fit].
